The other results are listed elsewhere or left out.
molecular target: OsWRKY34 (Oryza sativa, UniProt Q0JBA9 1-250); test: protein-binding microarray (RPBM); PBS, 2% BSA, 51.3 ng/ul salmon testes DNA, 50 uM zinc acetate, 200 nM TF, 25 C, 1 h; high values mean tight binding; conditions: protein: recombinant; tags: N-terminal polyhistidine and DsRed monomer fusion (pET32a); label: CyDye5-dUTP incorporated in the synthesized complementary strand; 3' TTTTT single-stranded linker to array surface; dsDNA, one strand shown
Procedure, shortened: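 Binding signal is defined as the fluorescence intensity of each feature in arbitrary units, read on an Axon 4000B scanner. Transcription factors with N-terminal polyhistidine and DsRed fusions came from E. coli BL21-CodonPlus and were purified on Ni–NTA. They were incubated at 200 nM for 1 h at 25 °C on a custom Agilent array that had been made double-stranded with Cy5-dUTP, with 50 µM zinc acetate present, and the array was washed.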

The chains behind the UniProt entries cited, without tags or fusion partners.
UniProt Q0JBA9, entry or part of it: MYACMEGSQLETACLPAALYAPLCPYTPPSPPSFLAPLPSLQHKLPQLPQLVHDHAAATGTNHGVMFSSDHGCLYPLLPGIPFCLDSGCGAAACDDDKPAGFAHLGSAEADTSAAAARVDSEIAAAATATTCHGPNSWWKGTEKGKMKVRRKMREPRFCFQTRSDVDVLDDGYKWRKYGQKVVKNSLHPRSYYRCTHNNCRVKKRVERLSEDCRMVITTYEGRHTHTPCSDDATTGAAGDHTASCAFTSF

Sequence	binding signal
TAATTGGGGTGATGTGGCTAATTCTCAAAGCAGTTTTATACGGAGTCACCTAGTGCAG	9290 fluorescence intensity (a.u.)
GTTTCCTTCTCTTTCCTCATTTATTTACTTGCCACATCATCGGAGTCACCTAGTGCAG	10500 fluorescence intensity (a.u.)
CTCTCTTTCTTCTTTGTGTCTTTGTTTCTTTTCTTTTTTCCGGAGTCACCTAGTGCAG	14700 fluorescence intensity (a.u.)
GGATGGTCGATTCTTCATCCTTTCGTTTTGCTTGCTGTGGCGGAGTCACCTAGTGCAG	9840 fluorescence intensity (a.u.)
CCATACGCAACAACAATGTTAATTTCTGTTTTATTTCCTTCGGAGTCACCTAGTGCAG	10400 fluorescence intensity (a.u.)
TATGCTCGGTGTGTTTATCATTGGTGTGATTGTGTATAGTCGGAGTCACCTAGTGCAG	10300 fluorescence intensity (a.u.)
ACTTTTCGCTTTTTATATTTGCATAATTTTTTTCAATAAGCGGAGTCACCTAGTGCAG	8150 fluorescence intensity (a.u.)
AGCCCAAAACCACTACACTTTTTTTTTTGTCCCTGATGCTCGGAGTCACCTAGTGCAG	10800 fluorescence intensity (a.u.)
TTAATATTTATGCATTTATAGTCTTATGTTTTGACCAGCACGGAGTCACCTAGTGCAG	8500 fluorescence intensity (a.u.)
GGCATTCTCTGTACTTTGGCTGTCACGCACGCACGCGTGGCGGAGTCACCTAGTGCAG	9760 fluorescence intensity (a.u.)
CCTTTTCTCCATCCGCCTCTTTCTTTTTTTCTCTCTCGCTCGGAGTCACCTAGTGCAG	8360 fluorescence intensity (a.u.)
CCAACTCGCGCAACTGATTTTGTGTTTTTGTTTGGCTCATCGGAGTCACCTAGTGCAG	9090 fluorescence intensity (a.u.)
TCCGTATTTTAATTAACGACGTCGTTGACTTTTTAACCACCGGAGTCACCTAGTGCAG	24200 fluorescence intensity (a.u.)
CTTAGGTCAACACCGAAAACTAATCACCATGTTGACTTTGCGGAGTCACCTAGTGCAG	9710 fluorescence intensity (a.u.)
CCATTCCTGCTTCCGCCCTTGTATATGTATCGACTTGTCACGGAGTCACCTAGTGCAG	9190 fluorescence intensity (a.u.)
TACCCCTCCGTTTCATATGATAAGTTGTTTGACTTTTTTTCGGAGTCACCTAGTGCAG	14300 fluorescence intensity (a.u.)
GAGAGCTATGTTAACCATTTGTGTTTTTGCAGTATCATAACGGAGTCACCTAGTGCAG	8580 fluorescence intensity (a.u.)
ACCTGTCCCCAACCGAAAAGGCAAAATTGACGCCCAAACTCGGAGTCACCTAGTGCAG	8580 fluorescence intensity (a.u.)
TCCTCGCGCCGCCATAAATCCTCGTCTCCCGTACCAACTACGGAGTCACCTAGTGCAG	10500 fluorescence intensity (a.u.)
TTTTTTCGACCGCTCGAGCGCCCAACGCGCAGCATTTCCCCGGAGTCACCTAGTGCAG	8350 fluorescence intensity (a.u.)
AAGCCCACCTCCAACCAACCACTCTGCCCCAAAACCATTTCGGAGTCACCTAGTGCAG	9080 fluorescence intensity (a.u.)

Three entries from above, in markdown:

| Sequence | binding signal |
| --- | --- |
| GTTTCCTTCTCTTTCCTCATTTATTTACTTGCCACATCATCGGAGTCACCTAGTGCAG | 10500 fluorescence intensity (a.u.) |
| ACTTTTCGCTTTTTATATTTGCATAATTTTTTTCAATAAGCGGAGTCACCTAGTGCAG | 8150 fluorescence intensity (a.u.) |
| CCATTCCTGCTTCCGCCCTTGTATATGTATCGACTTGTCACGGAGTCACCTAGTGCAG | 9190 fluorescence intensity (a.u.) |

Additional results.

Sequence	binding signal
AGGGGCCCTTTCCTAACACTGCCCATTGCCAACCTATCCACGGAGTCACCTAGTGCAG	8720 fluorescence intensity (a.u.)
ACCCTTTTGAAAACGCAGCATGAATAATTCATTACCTGTTCGGAGTCACCTAGTGCAG	9120 fluorescence intensity (a.u.)
GTACTCATCGGTTCATTGTCCAGCTCCAGCAGTTGATCTTCGGAGTCACCTAGTGCAG	11700 fluorescence intensity (a.u.)
ACAGATTGTGTCACATTGTTATTTTCTCACTCTTTTATTTCGGAGTCACCTAGTGCAG	10900 fluorescence intensity (a.u.)
TAAAAGAAGGGCTATGGTGTGTACTTGTGTTATTGCTTTTCGGAGTCACCTAGTGCAG	11800 fluorescence intensity (a.u.)
CTCATTGTTTCCTCTAAAAAGAGGTATTTCTTATTGGGTTCGGAGTCACCTAGTGCAG	8470 fluorescence intensity (a.u.)
GAACCCACATCCCACCATGACGCGCAATTACCTCATTATCCGGAGTCACCTAGTGCAG	17000 fluorescence intensity (a.u.)
CTTGTACGTGTTGACGCCATTTGAAGCCTTCCATTTGACGCGGAGTCACCTAGTGCAG	9050 fluorescence intensity (a.u.)
TTGTTTGCCATGTTGATGGTATTGTTTACTGCTCTTGAAACGGAGTCACCTAGTGCAG	9770 fluorescence intensity (a.u.)
TCTTGGCTTCTTGATGATTTGCTCTTAGCTGCTGTTCTATCGGAGTCACCTAGTGCAG	8400 fluorescence intensity (a.u.)
GGGTTGCTTATACTTTCACTTTACACCAAGTTATTTTAAACGGAGTCACCTAGTGCAG	10300 fluorescence intensity (a.u.)
AATCTTTTAATTTGTTAAGCTCTCTATCTCTATTTCTATCCGGAGTCACCTAGTGCAG	8180 fluorescence intensity (a.u.)
CTCTATTACGAATGCGTGCACATGTGTTTGATTTCCTGTTCGGAGTCACCTAGTGCAG	10100 fluorescence intensity (a.u.)
TCCTCATCTTGTGCTCTCAAGTGTTTTAAGTGCTCTCTTTCGGAGTCACCTAGTGCAG	10500 fluorescence intensity (a.u.)
TATTTGGCCCACCACAAGTCAATCGCGCCCCTTTCTTCTCCGGAGTCACCTAGTGCAG	8500 fluorescence intensity (a.u.)
GAGTTCTTGCGGCGACCACCTATTTTCTTCCCGATTTACTCGGAGTCACCTAGTGCAG	8900 fluorescence intensity (a.u.)
TATAAACAAACCACTCGCCGCGCCGCATCAGTCGTAACCACGGAGTCACCTAGTGCAG	8580 fluorescence intensity (a.u.)
CAGTTTGAGTTTTTGTTAGTTATTTCGTTTATTTTTTTTTCGGAGTCACCTAGTGCAG	12300 fluorescence intensity (a.u.)
ACATTTTTGTTTGCATAGCTCTTTCACATTCATGCATAAGCGGAGTCACCTAGTGCAG	9450 fluorescence intensity (a.u.)
TGAGGGATGCTTTTTAAGTTTTTGGGTGTTGGTCAGATCTCGGAGTCACCTAGTGCAG	9910 fluorescence intensity (a.u.)
AACACGATCTACTTTCTTCATACGCAGTACTCTCTCCATACGGAGTCACCTAGTGCAG	8350 fluorescence intensity (a.u.)

From article PMC7819943, “Rice protein-binding microarrays: a tool to detect cis-acting elements near promoter regions in rice”
